Assay results reported in PubChem BioAssay AID256 (DTP/NCI, 2004).
The list shows only some results of the screen, not a fair sample: it is rich in T/C values a quarter to a half above the control, in often repeated tests (any T/C) and in doses without a T/C. Further doses and runs are listed elsewhere. T/C is the treated group as % of the vehicle group. Some doses have a count of surviving animals in place of a T/C: the source holds a T/C of zero for them, seemingly a mark for toxic or unscored doses. Some survivor counts are full or nearly so, which does not show that the dose was tolerated: survival well below the control is almost never listed, so the zero probably covers shortened survival too. Survivors were counted at the toxicity check, usually on the fifth day, unless a day is given; later deaths do not show. Schedule codes are those of the source, taken here to give the interval after Q, in days (D) or hours (H), and the number of doses after X. Where survival is the endpoint, the PubChem record calls one and a half times the control and up active, and a quarter to a half above the control has no call in these data; cut-offs in other NCI protocols can differ.

System: CD2F1 mice, L1210 leukemia ip, survival T/C
Experiment: NCI In Vivo Anticancer Drug Screen. Data for tumor model L1210 Leukemia (intraperitoneal) in CD2F1 (CDF1) mice
Details: T/C endpoint: mean survival time, higher T/C = longer survival
How it was run: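 In this screen, transplantable tumors were grown in mice given either the compound or its vehicle. Results were expressed as the treated measurement relative to the control measurement.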

[1] = dose: 400.0 mg/kg/injection, schedule: Q04DX003 (ip), vehicle: saline with Tween-80
[2] = dose: 200.0 mg/kg/injection, schedule: Q04DX003 (ip), vehicle: saline with Tween-80

**Q.** Which results are given for `CCC(=O)OCC(=O)[C@]1(O)Cc2c(O)c3c(c(O)c2[C@@H](OC2CC(N)C(O)C(C)O2)C1)C(=O)c1c(OC)cccc1C3=O` (stereo not given in full)?
**A.** T/C (dose: 0.5 mg/kg/injection, schedule: Q01DX009 (ip), vehicle: saline): 125 % of control; T/C (dose: 0.5 mg/kg/injection, schedule: Q04DX003 (ip), vehicle: saline with Tween-80): 139 % of control; T/C (dose: 0.66 mg/kg/injection, schedule: Q04DX003 (ip), vehicle: saline sonified): 144 % of control; T/C (dose: 1.0 mg/kg/injection, schedule: Q01DX009 (ip), vehicle: saline, evaluated on day 20): 136 % of control; T/C (dose: 1.0 mg/kg/injection, schedule: Q01DX009 (ip), vehicle: saline, evaluated on day 60): 135 % of control; T/C (dose: 1.0 mg/kg/injection, schedule: Q04DX003 (ip), vehicle: saline sonified): 141 % of control; T/C (dose: 1.0 mg/kg/injection, schedule: Q04DX003 (ip), vehicle: saline with Tween-80): 139 % of control; T/C (dose: 1.25 mg/kg/injection, schedule: Q04DX003 (ip), vehicle: saline): 133 % of control; T/C (dose: 2.0 mg/kg/injection, schedule: Q01DX009 (ip), vehicle: saline): 147 % of control; T/C (dose: 2.5 mg/kg/injection, schedule: Q01DX001 (ip), vehicle: saline): 129 % of control; T/C (dose: 2.5 mg/kg/injection, schedule: Q04DX003 (ip), vehicle: saline): 137 % of control; T/C (dose: 4.0 mg/kg/injection, schedule: Q01DX009 (ip), vehicle: saline): 127 % of control; T/C (dose: 5.0 mg/kg/injection, schedule: Q01DX001 (ip), vehicle: saline): 142 % of control; T/C (dose: 5.0 mg/kg/injection, schedule: Q04DX003 (ip), vehicle: saline): 148 % of control; T/C (dose: 10.0 mg/kg/injection, schedule: Q01DX001 (ip), vehicle: saline): 136 % of control; T/C (dose: 10.0 mg/kg/injection, schedule: Q04DX003 (ip), vehicle: saline): 128 % of control; survivor count (dose: 20.0 mg/kg/injection, schedule: Q01DX001 (ip), vehicle: saline): 6 of 10; survivor count (dose: 20.0 mg/kg/injection, schedule: Q04DX003 (ip), vehicle: saline): 6 of 10; survivor count (dose: 40.0 mg/kg/injection, schedule: Q01DX001 (ip), vehicle: saline): 0 of 10

**Q.** `O=[N+]([O-])c1ccc(C(F)(F)F)cc1` was tested. Which survivor count [1] did it give?
**A.** Its survivor count is 6 of 6.

**Q.** How did the survivor count [1] turn out when `COc1ccc(Br)cc1C1OC(=O)c2c(OC)c(OC)cc([N+](=O)[O-])c21` (stereo not given) was run?
**A.** The survivor count was 6 of 6.

**Q.** For `CC(=O)Nc1ncc2ccccc2c1-c1ccc(N(CCCl)CCCl)cc1`, which T/C (dose: 200.0 mg/kg/injection, schedule: Q04DX003 (ip), vehicle: DMSO) is on record?
**A.** Its T/C is 135 % of control.

**Q.** And the survivor count (dose: 600.0 mg/kg/injection, schedule: Q04DX003 (ip), vehicle: saline + alcohol)?
**A.** The survivor count was 1 of 6.

**Q.** How did the survivor count (dose: 100.0 mg/kg/injection, schedule: Q01DX001 (ip), vehicle: carboxymethylcellulose (CMC)) turn out when `COCc1nnc2ncnc(N)c2n1` was run?
**A.** The survivor count was 1 of 6.

**Q.** And the survivor count (dose: 200.0 mg/kg/injection, schedule: Q01DX001 (ip), vehicle: carboxymethylcellulose (CMC))?
**A.** Its survivor count is 0 of 6.

**Q.** What about the survivor count (dose: 400.0 mg/kg/injection, schedule: Q01DX001 (ip), vehicle: carboxymethylcellulose (CMC)) of the same molecule?
**A.** The survivor count was 0 of 6.

**Q.** How did the survivor count (dose: 400.0 mg/kg/injection, schedule: Q01DX001 (ip), vehicle: saline with Tween-80) turn out when `COc1ccc(NC(=O)NCCCl)cc1` was run?
**A.** The survivor count was 1 of 3.

**Q.** What does the source list for `OCC1OC(n2ncc3c(NO)ncnc32)C(O)C1O` (stereo not given)?
**A.** survivor count (dose: 25.0 mg/kg/injection, schedule: Q01DX005 (ip), vehicle: water): 2 of 3; survivor count (dose: 50.0 mg/kg/injection, schedule: Q01DX005 (ip), vehicle: water): 0 of 3; survivor count (dose: 100.0 mg/kg/injection, schedule: Q01DX005 (ip), vehicle: water): 1 of 3; survivor count (dose: 200.0 mg/kg/injection, schedule: Q01DX005 (ip), vehicle: water): 0 of 3; survivor count (dose: 400.0 mg/kg/injection, schedule: Q01DX005 (ip), vehicle: water): 0 of 3

**Q.** What does the source list for `[Cl][Pt][Cl].c1ccc([AsH](CC[AsH](c2ccccc2)c2ccccc2)c2ccccc2)cc1`?
**A.** survivor count [2]: 1 of 4; survivor count [1]: 0 of 4

**Q.** `O=C(CCBr)N1CCN(C(=O)CCBr)CC1` was tested. Which T/C (dose: 25.0 mg/kg/injection, schedule: Q01DX007 (ip), vehicle: saline) did it give?
**A.** Its T/C is 127 % of control.

**Q.** What about the T/C (dose: 50.0 mg/kg/injection, schedule: Q01DX007 (ip), vehicle: saline) of the same molecule?
**A.** Its T/C is 144 % of control.

**Q.** What about the T/C (dose: 50.0 mg/kg/injection, schedule: Q01DX009 (ip), vehicle: saline) of the same molecule?
**A.** The T/C was 144 % of control.

**Q.** And the survivor count (dose: 64.0 mg/kg/injection, schedule: Q03HX008 (ip), vehicle: saline)?
**A.** Its survivor count is 9 of 10.

**Q.** What about the survivor count (dose: 64.0 mg/kg/injection, schedule: Q03HX008 (oral), vehicle: saline) of the same molecule?
**A.** The survivor count was 8 of 10.

**Q.** And the survivor count (dose: 64.0 mg/kg/injection, schedule: Q03HX016 (ip), vehicle: saline)?
**A.** The survivor count was 8 of 10.

**Q.** And the survivor count (dose: 64.0 mg/kg/injection, schedule: Q03HX016 (oral), vehicle: saline)?
**A.** Its survivor count is 10 of 10.

**Q.** And the survivor count (dose: 64.0 mg/kg/injection, schedule: Q03HX024 (ip), vehicle: saline)?
**A.** The survivor count was 10 of 10.

**Q.** What about the survivor count (dose: 64.0 mg/kg/injection, schedule: Q03HX024 (oral), vehicle: saline) of the same molecule?
**A.** The survivor count was 10 of 10.

**Q.** And the T/C (dose: 64.0 mg/kg/injection, schedule: Q04DX003 (oral), vehicle: saline)?
**A.** The T/C was 139 % of control.

**Q.** And the T/C (dose: 100.0 mg/kg/injection, schedule: Q01DX009 (ip), vehicle: saline)?
**A.** Its T/C is 146 % of control.

**Q.** And the T/C (dose: 100.0 mg/kg/injection, schedule: Q04DX003 (ip), vehicle: saline)?
**A.** Its T/C is 148 % of control.

**Q.** What about the T/C (dose: 128.0 mg/kg/injection, schedule: Q01DX001 (ip), vehicle: saline) of the same molecule?
**A.** The T/C was 140 % of control.

**Q.** What about the survivor count (dose: 128.0 mg/kg/injection, schedule: Q01DX009 (ip), vehicle: saline) of the same molecule?
**A.** Its survivor count is 10 of 10.

**Q.** What about the survivor count (dose: 128.0 mg/kg/injection, schedule: Q03HX008 (ip), vehicle: saline) of the same molecule?
**A.** Its survivor count is 6 of 10.

**Q.** And the survivor count (dose: 128.0 mg/kg/injection, schedule: Q03HX008 (oral), vehicle: saline)?
**A.** The survivor count was 4 of 10.

**Q.** What about the survivor count (dose: 128.0 mg/kg/injection, schedule: Q03HX024 (oral), vehicle: saline) of the same molecule?
**A.** The survivor count was 5 of 10.

**Q.** And the T/C (dose: 128.0 mg/kg/injection, schedule: Q08DX002 (oral), vehicle: saline)?
**A.** The T/C was 137 % of control.

**Q.** And the T/C (dose: 256.0 mg/kg/injection, schedule: Q01DX001 (oral), vehicle: saline)?
**A.** Its T/C is 134 % of control.

**Q.** What about the survivor count (dose: 256.0 mg/kg/injection, schedule: Q01DX009 (ip), vehicle: saline) of the same molecule?
**A.** Its survivor count is 9 of 10.

**Q.** What about the survivor count (dose: 256.0 mg/kg/injection, schedule: Q04DX003 (ip), vehicle: saline) of the same molecule?
**A.** The survivor count was 5 of 10.

**Q.** And the survivor count (dose: 256.0 mg/kg/injection, schedule: Q04DX003 (oral), vehicle: saline)?
**A.** Its survivor count is 6 of 10.

**Q.** And the survivor count (dose: 512.0 mg/kg/injection, schedule: Q01DX001 (ip), vehicle: saline)?
**A.** Its survivor count is 6 of 10.

**Q.** What about the survivor count (dose: 512.0 mg/kg/injection, schedule: Q01DX001 (oral), vehicle: saline) of the same molecule?
**A.** The survivor count was 5 of 10.

**Q.** What about the survivor count (dose: 512.0 mg/kg/injection, schedule: Q04DX003 (ip), vehicle: saline) of the same molecule?
**A.** Its survivor count is 5 of 10.

**Q.** What about the survivor count (dose: 512.0 mg/kg/injection, schedule: Q04DX003 (oral), vehicle: saline) of the same molecule?
**A.** The survivor count was 5 of 10.

**Q.** And the survivor count (dose: 512.0 mg/kg/injection, schedule: Q08DX002 (ip), vehicle: saline)?
**A.** Its survivor count is 4 of 10.

**Q.** And the survivor count (dose: 1024.0 mg/kg/injection, schedule: Q01DX001 (ip), vehicle: saline)?
**A.** The survivor count was 4 of 10.

**Q.** And the survivor count (dose: 1024.0 mg/kg/injection, schedule: Q01DX001 (oral), vehicle: saline)?
**A.** The survivor count was 2 of 10.

**Q.** And the survivor count (dose: 1024.0 mg/kg/injection, schedule: Q04DX003 (oral), vehicle: saline)?
**A.** The survivor count was 1 of 10.

**Q.** Which survivor count (dose: 25.0 mg/kg/injection, schedule: Q04DX003 (ip), vehicle: saline with Tween-80) does the source give for `CCOC(=O)C[P+](c1ccccc1)(c1ccccc1)c1ccccc1` here?
**A.** The survivor count was 6 of 6.

**Q.** And the survivor count (dose: 50.0 mg/kg/injection, schedule: Q04DX003 (ip), vehicle: saline with Tween-80)?
**A.** The survivor count was 3 of 6.

**Q.** What about the survivor count (dose: 100.0 mg/kg/injection, schedule: Q04DX003 (ip), vehicle: saline with Tween-80) of the same molecule?
**A.** Its survivor count is 0 of 6.

**Q.** What about the survivor count [2] of the same molecule?
**A.** Its survivor count is 0 of 6.

**Q.** For `COc1cc2c(cc1OC)C(Cc1ccccc1)=NCC2`, which survivor count (dose: 200.0 mg/kg/injection, schedule: Q01DX009 (ip), vehicle: saline sonified) is on record?
**A.** Its survivor count is 1 of 6.

**Q.** What about the survivor count [1] of the same molecule?
**A.** Its survivor count is 0 of 6.
